Data as given in PubChem BioAssay AID1053208 (Peter MacCallum Cancer Centre, 2014)

Test: 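Find knock-downs that sensitise mouse osteosarcoma cells to doxorubicin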 (primary screen)
System: mouse osteosarcoma cells, early-passage culture from an engineered mouse model of fibroblastic bone tumour
Knock-down reagent: siRNA pool against mouse genes, 40 nM
Time to read-out: about 120 h (48 h before drug, then 72 h with drug)
Treatment: doxorubicin 100 nM for 72 h, roughly 30-40% inhibitory dose
Measured: 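Viability read as ATP luminescence after 72 h of 100 nM doxorubicin or none, duplicate wells averaged, scaled to non-targeting siRNA, then expressed as robust z-scores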
Direction: viability z-score with doxorubicin: higher = more viable cells under doxorubicin; viability z-score without drug: higher = more viable cells with knock-down alone
Call rule: 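a pool counts as active when its viability z-score with doxorubicin is -2 or below and its z-score without drug lies between -2 and 2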
Shown is an unselected part of about 17,000 reagents. 788 of all reagents (4.7%) were called active. 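Calls rest on z-score classes alone; an extra cut-off of viability at most 70% of control was not applied to them.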 Further read-outs or replicates are left out here.

| target | combined z-score class | viability z-score with doxorubicin | viability z-score without drug | Outcome |
| --- | --- | --- | --- | --- |
| Cyth1 | high cell count with doxorubicin only | 2.02 | 1.18 | inactive |
| Hid1 | no change with or without drug | 0.67 | 0.51 | inactive |
| Or9m1b | no change with or without drug | 0.79 | 0.51 | inactive |
| Glra4 | no change with or without drug | 1.35 | 1.85 | inactive |
| Krt72 | no change with or without drug | 0.45 | 0.17 | inactive |
| Riok3 | no change with or without drug | 0.22 | 0.84 | inactive |
| Or7a40 | no change with or without drug | 1.35 | 0.34 | inactive |
| Gnl1 | no change with or without drug | -1.57 | -0.51 | inactive |
| Uqcrb | no change with or without drug | -0.67 | -0.84 | inactive |
| Mbnl1 | no change with or without drug | 0.34 | -0.17 | inactive |
| Klhl17 | no change with or without drug | 0.67 | -0.17 | inactive |
| Nt5e | no change with or without drug | -1.57 | -1.18 | inactive |
| D16Ertd472e | low cell count without drug only | 0.34 | -2.19 | inactive |
| Iyd | no change with or without drug | 1.57 | 0.51 | inactive |
| Pip5k1a | no change with or without drug | -0.11 | 0.51 | inactive |
| Col11a2 | no change with or without drug | -1.01 | -0.84 | inactive |
| Lrrc25 | low cell count with and without drug | -2.36 | -2.19 | inactive |
| Ctnnal1 | no change with or without drug | -0.22 | -0.51 | inactive |
| Czib | no change with or without drug | -1.01 | 0.67 | inactive |
| Atp6v1b1 | no change with or without drug | -0.9 | 0.84 | inactive |
| Csnk2a2ip | low cell count with doxorubicin only | -2.36 | -1.85 | active |
| Nudt3 | no change with or without drug | 0.45 | -1.01 | inactive |
| Cdc42ep2 | no change with or without drug | 0.11 | 0.51 | inactive |
| Prelid1 | no change with or without drug | -0.56 | -0.84 | inactive |
| Slc41a1 | low cell count with doxorubicin only | -2.7 | -0.51 | active |
| Kirrel3 | no change with or without drug | -0.34 | -0.17 | inactive |
| Or9s27 | low cell count with and without drug | -2.25 | -2.53 | inactive |
| Scd2 | no change with or without drug | 0.34 | -0.51 | inactive |
| Cdc42ep3 | no change with or without drug | 0.67 | 0.51 | inactive |
| Klk1b26 | no change with or without drug | 1.57 | 1.35 | inactive |
| Rab23 | no change with or without drug | -0.11 | 0.67 | inactive |
| Tmem121b | no change with or without drug | -1.46 | -1.18 | inactive |
| Dusp6 | no change with or without drug | 0.22 | -1.18 | inactive |
| Tmem161b | no change with or without drug | -1.35 | 0.67 | inactive |

Single entries from the entries so far:
Ctnnal1, Outcome: inactive
For “Outcome”, Uqcrb reads inactive
Under “combined z-score class”, Nudt3 is entered as no change with or without drug
Dusp6, Outcome: inactive
Klhl17, combined z-score class = no change with or without drug
Under “Outcome”, Krt72 is entered as inactive
